Substitutions are numbered along the chain they refer to. The exact form of at least one protein or probe is not confirmed. At least one verdict rests on a figure or table, not on a statement of the authors. Protein sequences can lack the tags named with them.
How the values were obtained:
[1] = target: T1, LcTwinkle E325Q E452Q (Lates calcarifer) (UniProt A0A4W6C5C5); assay: fluorescence anisotropy; conditions: 0.5 mM ATP, 1 mM Mg2+, FA: 25 mM Tris-HCl pH 8.0, 150 mM KCl, 1 mM MgCl2, 20 nM Cy5-ssDNA, temperature not stated, recombinant protein, protein details: N-terminal His tag, PreScission-cleaved, label: 5'-Cy5, single-stranded DNA
T1 sequence (looked up, limits assumed): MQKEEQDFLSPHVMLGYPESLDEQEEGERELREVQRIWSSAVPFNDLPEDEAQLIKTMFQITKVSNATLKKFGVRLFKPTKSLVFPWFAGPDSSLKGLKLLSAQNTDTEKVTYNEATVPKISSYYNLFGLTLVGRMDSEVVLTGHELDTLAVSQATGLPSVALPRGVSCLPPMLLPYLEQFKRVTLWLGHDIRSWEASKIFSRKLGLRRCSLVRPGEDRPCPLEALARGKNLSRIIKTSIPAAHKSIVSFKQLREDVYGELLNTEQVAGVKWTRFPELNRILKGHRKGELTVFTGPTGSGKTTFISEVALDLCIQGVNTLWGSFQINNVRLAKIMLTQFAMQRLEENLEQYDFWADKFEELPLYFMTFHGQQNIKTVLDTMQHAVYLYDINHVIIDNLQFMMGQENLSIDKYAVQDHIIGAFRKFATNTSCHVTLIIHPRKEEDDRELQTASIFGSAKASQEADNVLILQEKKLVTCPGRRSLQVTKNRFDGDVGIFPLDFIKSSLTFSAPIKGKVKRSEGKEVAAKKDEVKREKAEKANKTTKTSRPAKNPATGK

[2] = target: T2, LcTwinkle WT (Lates calcarifer) (UniProt A0A4W6C5C5); assay: fluorescence anisotropy; conditions: 0.5 mM ATP, FA: 25 mM Tris-HCl pH 8.0, 150 mM KCl, 1 mM MgCl2, 20 nM Cy5-ssDNA, temperature not stated, recombinant protein, protein details: N-terminal His tag, PreScission-cleaved
T2 sequence (looked up, limits assumed): T1 sequence (looked up, limits assumed) with Q325E

Measured: binding result

GGATTATTTACATTGGCAGATTCACC [Cy5-ssDNA]
binds: [1] | [2]; 1 mM Mg2+, label: 5'-Cy5, single-stranded DNA | [2]; non-hydrolyzable ATP analogs, label: 5'-Cy5, single-stranded DNA
